Data taken from PMC12324679.

Tested on: PuPuf4 (Pythium ultimum)
Experiment: EMSA
Conditions: EMSA: Beyotime EMSA/Gel-Shift Binding Buffer, 50 ng RNA, 25 C 30 min, 1% agarose gel; recombinant protein; protein details: GST (N-terminal, pGEX-4T-2); label: FAM

Q: Does “GCCCAGUGCUCUGAAUGUCAAAGUGAAGAGAUUCACCAAGCGGCGGGUAAACGCG [H68 rRNA]” bind?
A: binds

Construct, isoform or probe ends are uncertain for at least one entry.
